# According to PMC5898266:
# Sequences of proteins named here, by UniProt entry; tags and fusion partners are left off.
# UniProt O60506: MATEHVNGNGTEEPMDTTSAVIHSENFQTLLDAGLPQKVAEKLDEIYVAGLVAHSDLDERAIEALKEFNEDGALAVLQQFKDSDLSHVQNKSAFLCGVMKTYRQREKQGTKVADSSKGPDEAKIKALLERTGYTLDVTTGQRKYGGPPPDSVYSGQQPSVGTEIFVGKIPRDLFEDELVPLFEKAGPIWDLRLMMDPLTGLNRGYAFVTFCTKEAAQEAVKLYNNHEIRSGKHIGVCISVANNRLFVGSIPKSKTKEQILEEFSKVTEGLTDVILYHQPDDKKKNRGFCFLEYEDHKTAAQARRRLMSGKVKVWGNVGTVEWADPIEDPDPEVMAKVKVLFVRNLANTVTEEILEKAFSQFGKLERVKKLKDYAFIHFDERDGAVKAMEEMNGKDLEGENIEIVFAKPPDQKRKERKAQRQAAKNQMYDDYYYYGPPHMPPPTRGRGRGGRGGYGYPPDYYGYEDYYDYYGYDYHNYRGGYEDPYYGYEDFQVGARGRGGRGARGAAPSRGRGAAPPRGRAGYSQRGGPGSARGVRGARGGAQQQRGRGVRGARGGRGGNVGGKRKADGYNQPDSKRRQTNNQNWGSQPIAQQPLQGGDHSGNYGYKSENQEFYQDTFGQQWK
# T1: Flag-tagged human ZFP36L2 (wild type) (human) (UniProt P47974)
# T1 sequence: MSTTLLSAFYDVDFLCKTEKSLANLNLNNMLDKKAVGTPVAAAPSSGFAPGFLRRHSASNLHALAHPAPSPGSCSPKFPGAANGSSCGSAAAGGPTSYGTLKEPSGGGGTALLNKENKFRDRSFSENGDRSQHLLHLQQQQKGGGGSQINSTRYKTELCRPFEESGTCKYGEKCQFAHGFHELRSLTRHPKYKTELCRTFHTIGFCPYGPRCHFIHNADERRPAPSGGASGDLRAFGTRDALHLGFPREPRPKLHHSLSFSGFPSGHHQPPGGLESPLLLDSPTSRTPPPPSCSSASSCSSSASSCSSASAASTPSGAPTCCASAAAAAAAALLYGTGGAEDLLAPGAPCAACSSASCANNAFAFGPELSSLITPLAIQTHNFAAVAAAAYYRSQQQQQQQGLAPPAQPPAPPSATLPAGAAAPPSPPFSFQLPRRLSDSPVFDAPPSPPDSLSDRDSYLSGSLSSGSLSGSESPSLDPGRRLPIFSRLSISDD
# Biological target: T1, Flag-tagged human ZFP36L2 (wild type) (human)
# Assay: affinity purification with mass spectrometry; Flag-ZFP36L2 in HeLa cells arrested at G1/S, S, G2 or M phase; anti-Flag M2-agarose 1 h, lysis buffer 20 mM HEPES pH 7.5, 150 mM NaCl, 0.5% digitonin; elution with Flag peptide; LC/MS/MS; Flag empty vector as negative control
row,binding,Molecule
1,binds,cytoplasmic RNA-binding protein SYNCRIP (from UniProt O60506 1-623)
2,binds,KH domain protein hnRNP-K (from UniProt P61978 1-463)
3,binds,"phospho-specific adaptor protein YWHAH (14-3-3η) (protein, UniProt Q04917 1-246) MGDREQLLQRARLAEQAERYDDMASAMKAVTELNEPLSNEDRNLLSVAYKNVVGARRSSWRVISSIEQKTMADGNEKKLEKVKAYREKIEKELETVCNDVLSLLDKFLIKNCNDFQYESKVFYLKMKGDYYRYLAEVASGEKKNSVVEASEAAYKEAFEISKEQMQPTHPIRLGLALNFSVFYYEIQNAPEQACLLAKQAFDDAIAELDTLNEDSYKDSTLIMQLLRDNLTLWTSDQQDEEAGEGN"
4,binds,"PRPSAP2 (protein, UniProt O60256 1-369) MFCVTPPELETKMNITKGGLVLFSANSNSSCMELSKKIAERLGVEMGKVQVYQEPNRETRVQIQESVRGKDVFIIQTVSKDVNTTIMELLIMVYACKTSCAKSIIGVIPYFPYSKQCKMRKRGSIVSKLLASMMCKAGLTHLITMDLHQKEIQGFFNIPVDNLRASPFLLQYIQEEIPDYRNAVIVAKSPASAKRAQSFAERLRLGIAVIHGEAQDAESDLVDGRHSPPMVRSVAAIHPSLEIPMLIPKEKPPITVVGDVGGRIAIIVDDIIDDVDSFLAAAETLKERGAYKIFVMATHGLLSSDAPRRIEESAIDEVVVTNTIPHEVQKLQCPKIKTVDISMILSEAIRRIHNGESMSYLFRNIGLDD"
5,binds,"PRPSAP1 (protein, UniProt Q14558 1-356) MNAARTGYRVFSANSTAACTELAKRITERLGAELGKSVVYQETNGETRVEIKESVRGQDIFIIQTIPRDVNTAVMELLIMAYALKTACARNIIGVIPYFPYSKQSKMRKRGSIVCKLLASMLAKAGLTHIITMDLHQKEIQGFFSFPVDNLRASPFLLQYIQEEIPNYRNAVIVAKSPDAAKRAQSYAERLRLGLAVIHGEAQCTELDMDDGRHSPPMVKNATVHPGLELPLMMAKEKPPITVVGDVGGRIAIIVDDIIDDVESFVAAAEILKERGAYKIYVMATHGILSAEAPRLIEESSVDEVVVTNTVPHEVQKLQCPKIKTVDISLILSEAIRRIHNGESMAYLFRNITVDD"

# No constants are given. Whether binding was seen depends on the method and setting. Binding seen in cells or lysates may run through a third protein. Here binding means that the protein was enriched with, or labelled near, the bait; the list need not be complete. Where a sequence is shown, tags or fusion partners need not be part of it.
